Measured values published in publication PMC4642984.
Results are given in words; binding and its absence hold for the method and conditions named. Binding seen in cells or lysates may run through a third protein. Binding can be weak; no strength is given.

Amino acid sequences for entries named in this document (tags omitted). A change or cut given only in a name is not applied to a line headed by its entry.
UniProt Q9WTL8: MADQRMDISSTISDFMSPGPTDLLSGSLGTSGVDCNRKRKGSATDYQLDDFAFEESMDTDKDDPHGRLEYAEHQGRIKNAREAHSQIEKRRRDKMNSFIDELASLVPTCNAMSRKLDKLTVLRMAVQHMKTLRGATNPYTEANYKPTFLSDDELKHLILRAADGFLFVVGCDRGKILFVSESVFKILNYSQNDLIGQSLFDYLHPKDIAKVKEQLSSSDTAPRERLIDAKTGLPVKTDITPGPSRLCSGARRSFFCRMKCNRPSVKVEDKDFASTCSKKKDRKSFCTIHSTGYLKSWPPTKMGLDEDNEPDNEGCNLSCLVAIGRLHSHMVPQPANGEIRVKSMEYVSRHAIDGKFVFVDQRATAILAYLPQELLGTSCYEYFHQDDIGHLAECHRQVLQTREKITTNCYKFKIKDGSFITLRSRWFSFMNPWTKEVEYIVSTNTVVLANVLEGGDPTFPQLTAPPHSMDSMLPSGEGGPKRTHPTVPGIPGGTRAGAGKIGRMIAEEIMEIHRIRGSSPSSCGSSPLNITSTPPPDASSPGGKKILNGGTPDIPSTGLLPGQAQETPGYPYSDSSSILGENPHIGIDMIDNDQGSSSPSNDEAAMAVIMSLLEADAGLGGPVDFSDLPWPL
UniProt P67870: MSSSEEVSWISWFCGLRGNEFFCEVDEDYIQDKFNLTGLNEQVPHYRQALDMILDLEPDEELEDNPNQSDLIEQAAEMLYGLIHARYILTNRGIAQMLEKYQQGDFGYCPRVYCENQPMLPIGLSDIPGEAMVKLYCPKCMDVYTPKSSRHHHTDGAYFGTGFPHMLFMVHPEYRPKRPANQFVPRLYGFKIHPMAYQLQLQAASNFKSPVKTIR

Key:
Assay in all cases: split reporter; Split Luc complementation in living Cos7 cells transfected with ELucN-CK2β and ELucC-BMAL1 (WT or mutant) together with pcDNA, Myc-HA-CRY1, Myc-CRY2 or FLAG-CRY1 (WT or Cd1-4); real-time bioluminescence, averaged peak values
[1] = target: ELucC-BMAL1 deletion mutant Bd1 (mouse) (UniProt Q9WTL8)
[2] = target: ELucC-BMAL1 deletion mutant Bd3 (mouse) (UniProt Q9WTL8)
[3] = target: ELucC-BMAL1 deletion mutant Bd2 (mouse) (UniProt Q9WTL8)

binding [1]: binds
binding [2]: binds
binding [3]: binds
Substance: ELucN-CK2β (from UniProt P67870 1-215)
